The values below come from the supplement of paper PMC11006884.

Sequences of proteins named here, by UniProt entry; tags and fusion partners are left off. A change or cut given only in a name is not applied to a line headed by its entry.
UniProt Q8WZA9: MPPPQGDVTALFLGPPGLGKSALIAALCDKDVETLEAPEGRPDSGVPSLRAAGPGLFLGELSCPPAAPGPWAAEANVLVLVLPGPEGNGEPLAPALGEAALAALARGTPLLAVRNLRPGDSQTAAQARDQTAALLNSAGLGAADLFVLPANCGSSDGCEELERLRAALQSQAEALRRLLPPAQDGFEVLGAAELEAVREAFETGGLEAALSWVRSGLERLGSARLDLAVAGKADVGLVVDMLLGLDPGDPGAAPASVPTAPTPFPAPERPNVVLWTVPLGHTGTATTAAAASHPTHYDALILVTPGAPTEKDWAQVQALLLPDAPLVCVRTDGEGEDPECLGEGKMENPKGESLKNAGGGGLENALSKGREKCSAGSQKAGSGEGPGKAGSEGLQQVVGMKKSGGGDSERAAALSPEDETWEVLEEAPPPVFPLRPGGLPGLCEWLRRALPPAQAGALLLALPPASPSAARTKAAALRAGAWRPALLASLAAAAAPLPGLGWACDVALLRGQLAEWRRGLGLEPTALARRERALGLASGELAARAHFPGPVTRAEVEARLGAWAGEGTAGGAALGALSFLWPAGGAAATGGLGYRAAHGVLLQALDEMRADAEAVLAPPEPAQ
UniProt Q8NBU5: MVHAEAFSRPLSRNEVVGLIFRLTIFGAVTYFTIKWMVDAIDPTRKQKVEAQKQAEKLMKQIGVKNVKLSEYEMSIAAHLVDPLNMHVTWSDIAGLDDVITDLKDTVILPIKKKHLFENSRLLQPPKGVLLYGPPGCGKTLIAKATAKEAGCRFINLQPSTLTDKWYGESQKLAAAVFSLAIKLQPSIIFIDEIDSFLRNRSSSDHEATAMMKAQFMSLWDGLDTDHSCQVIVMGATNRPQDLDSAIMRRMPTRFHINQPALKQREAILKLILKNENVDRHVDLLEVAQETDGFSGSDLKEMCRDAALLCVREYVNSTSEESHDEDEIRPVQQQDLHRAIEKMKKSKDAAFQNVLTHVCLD
UniProt Q8NBN7: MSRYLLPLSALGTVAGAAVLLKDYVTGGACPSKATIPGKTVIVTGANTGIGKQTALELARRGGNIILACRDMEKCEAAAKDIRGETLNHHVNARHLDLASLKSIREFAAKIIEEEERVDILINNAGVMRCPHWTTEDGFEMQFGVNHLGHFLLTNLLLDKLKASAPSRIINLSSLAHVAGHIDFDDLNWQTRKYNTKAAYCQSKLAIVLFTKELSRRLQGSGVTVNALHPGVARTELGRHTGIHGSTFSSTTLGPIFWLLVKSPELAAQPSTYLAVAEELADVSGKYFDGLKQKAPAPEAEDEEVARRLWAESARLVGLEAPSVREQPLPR
UniProt Q8ND56: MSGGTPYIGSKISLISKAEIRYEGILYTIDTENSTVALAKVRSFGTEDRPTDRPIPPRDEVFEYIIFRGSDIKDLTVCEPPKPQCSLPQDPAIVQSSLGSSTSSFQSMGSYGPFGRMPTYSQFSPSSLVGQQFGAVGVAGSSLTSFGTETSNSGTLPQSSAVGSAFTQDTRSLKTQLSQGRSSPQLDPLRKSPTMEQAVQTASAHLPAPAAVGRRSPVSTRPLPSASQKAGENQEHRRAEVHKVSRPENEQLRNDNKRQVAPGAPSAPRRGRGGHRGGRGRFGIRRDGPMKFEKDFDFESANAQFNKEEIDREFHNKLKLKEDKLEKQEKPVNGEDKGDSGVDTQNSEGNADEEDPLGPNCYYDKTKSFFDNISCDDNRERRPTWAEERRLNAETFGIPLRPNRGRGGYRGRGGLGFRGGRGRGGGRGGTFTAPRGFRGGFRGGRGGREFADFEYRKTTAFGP
UniProt Q8NFC6: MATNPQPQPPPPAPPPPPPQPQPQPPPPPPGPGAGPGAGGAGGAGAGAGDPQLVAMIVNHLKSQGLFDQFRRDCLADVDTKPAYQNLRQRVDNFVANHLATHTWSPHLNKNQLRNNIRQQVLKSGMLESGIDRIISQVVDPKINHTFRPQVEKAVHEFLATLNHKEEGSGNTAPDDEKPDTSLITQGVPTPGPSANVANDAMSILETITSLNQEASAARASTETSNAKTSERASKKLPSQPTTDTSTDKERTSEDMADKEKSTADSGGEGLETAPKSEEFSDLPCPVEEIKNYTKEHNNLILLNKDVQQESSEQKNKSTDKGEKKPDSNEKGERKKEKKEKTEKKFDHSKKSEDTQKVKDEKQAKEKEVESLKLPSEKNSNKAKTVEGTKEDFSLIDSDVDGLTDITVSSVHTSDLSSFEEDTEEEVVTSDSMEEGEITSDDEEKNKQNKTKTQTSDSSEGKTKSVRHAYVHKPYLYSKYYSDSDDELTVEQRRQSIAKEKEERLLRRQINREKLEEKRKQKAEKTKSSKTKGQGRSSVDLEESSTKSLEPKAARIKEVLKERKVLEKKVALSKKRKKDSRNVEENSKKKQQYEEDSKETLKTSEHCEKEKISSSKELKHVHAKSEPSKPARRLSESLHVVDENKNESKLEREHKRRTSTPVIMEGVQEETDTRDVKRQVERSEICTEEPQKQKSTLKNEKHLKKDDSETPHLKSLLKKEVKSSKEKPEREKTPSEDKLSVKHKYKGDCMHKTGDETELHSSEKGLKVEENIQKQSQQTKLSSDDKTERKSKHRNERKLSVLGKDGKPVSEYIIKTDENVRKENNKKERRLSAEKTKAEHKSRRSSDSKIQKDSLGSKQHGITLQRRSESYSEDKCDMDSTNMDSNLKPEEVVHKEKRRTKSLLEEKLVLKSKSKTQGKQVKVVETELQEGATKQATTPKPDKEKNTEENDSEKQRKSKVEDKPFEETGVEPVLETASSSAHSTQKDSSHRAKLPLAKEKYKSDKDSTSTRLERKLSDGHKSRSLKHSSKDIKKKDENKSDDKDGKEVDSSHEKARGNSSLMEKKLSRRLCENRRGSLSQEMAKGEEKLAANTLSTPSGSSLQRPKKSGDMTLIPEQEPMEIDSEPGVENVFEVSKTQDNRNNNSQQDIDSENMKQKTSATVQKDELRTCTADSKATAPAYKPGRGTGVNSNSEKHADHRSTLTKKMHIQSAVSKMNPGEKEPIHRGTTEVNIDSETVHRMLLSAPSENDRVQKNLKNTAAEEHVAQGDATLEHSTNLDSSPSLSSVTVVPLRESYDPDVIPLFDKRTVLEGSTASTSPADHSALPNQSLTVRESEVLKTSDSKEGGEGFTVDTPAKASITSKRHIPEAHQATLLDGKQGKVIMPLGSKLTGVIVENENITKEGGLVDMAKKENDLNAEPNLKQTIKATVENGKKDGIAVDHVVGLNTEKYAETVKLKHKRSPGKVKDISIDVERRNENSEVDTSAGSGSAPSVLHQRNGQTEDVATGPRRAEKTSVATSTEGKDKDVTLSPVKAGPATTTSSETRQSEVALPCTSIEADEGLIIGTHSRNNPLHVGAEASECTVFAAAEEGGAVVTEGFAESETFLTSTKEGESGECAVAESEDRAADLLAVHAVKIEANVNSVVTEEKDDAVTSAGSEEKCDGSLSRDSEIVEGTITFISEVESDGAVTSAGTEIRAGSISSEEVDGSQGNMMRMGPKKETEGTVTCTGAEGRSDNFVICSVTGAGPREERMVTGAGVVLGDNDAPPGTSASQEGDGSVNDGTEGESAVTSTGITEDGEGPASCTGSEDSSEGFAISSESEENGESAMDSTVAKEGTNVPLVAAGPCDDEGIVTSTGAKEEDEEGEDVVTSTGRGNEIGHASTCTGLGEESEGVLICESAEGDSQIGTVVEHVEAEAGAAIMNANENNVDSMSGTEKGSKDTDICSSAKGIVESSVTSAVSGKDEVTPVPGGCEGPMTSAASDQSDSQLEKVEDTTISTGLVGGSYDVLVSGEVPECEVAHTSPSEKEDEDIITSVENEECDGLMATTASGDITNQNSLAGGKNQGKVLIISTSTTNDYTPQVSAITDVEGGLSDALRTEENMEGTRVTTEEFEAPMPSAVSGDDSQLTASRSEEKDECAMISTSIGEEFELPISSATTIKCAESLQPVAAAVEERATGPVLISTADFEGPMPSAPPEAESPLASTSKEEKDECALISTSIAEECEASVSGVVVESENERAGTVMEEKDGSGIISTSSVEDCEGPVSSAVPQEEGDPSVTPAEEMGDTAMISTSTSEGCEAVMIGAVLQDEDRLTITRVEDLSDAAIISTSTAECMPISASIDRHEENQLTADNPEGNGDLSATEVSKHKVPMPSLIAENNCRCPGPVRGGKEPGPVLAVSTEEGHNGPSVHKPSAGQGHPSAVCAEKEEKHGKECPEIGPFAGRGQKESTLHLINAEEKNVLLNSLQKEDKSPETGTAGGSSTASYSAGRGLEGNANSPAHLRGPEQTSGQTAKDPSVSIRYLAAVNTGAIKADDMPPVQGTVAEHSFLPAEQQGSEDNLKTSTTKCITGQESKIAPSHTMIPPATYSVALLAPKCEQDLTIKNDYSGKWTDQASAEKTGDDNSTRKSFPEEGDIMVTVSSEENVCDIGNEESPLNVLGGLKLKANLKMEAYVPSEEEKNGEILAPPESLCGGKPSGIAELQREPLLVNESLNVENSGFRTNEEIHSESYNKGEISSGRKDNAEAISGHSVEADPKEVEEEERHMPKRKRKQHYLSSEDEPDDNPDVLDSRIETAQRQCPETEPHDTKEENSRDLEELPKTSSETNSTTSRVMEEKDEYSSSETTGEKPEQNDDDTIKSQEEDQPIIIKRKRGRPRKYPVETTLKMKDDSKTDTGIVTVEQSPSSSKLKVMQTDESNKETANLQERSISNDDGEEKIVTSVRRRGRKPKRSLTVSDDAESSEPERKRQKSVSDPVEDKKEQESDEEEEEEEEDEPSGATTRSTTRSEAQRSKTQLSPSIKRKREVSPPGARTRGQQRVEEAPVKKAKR
UniProt Q8N3R9: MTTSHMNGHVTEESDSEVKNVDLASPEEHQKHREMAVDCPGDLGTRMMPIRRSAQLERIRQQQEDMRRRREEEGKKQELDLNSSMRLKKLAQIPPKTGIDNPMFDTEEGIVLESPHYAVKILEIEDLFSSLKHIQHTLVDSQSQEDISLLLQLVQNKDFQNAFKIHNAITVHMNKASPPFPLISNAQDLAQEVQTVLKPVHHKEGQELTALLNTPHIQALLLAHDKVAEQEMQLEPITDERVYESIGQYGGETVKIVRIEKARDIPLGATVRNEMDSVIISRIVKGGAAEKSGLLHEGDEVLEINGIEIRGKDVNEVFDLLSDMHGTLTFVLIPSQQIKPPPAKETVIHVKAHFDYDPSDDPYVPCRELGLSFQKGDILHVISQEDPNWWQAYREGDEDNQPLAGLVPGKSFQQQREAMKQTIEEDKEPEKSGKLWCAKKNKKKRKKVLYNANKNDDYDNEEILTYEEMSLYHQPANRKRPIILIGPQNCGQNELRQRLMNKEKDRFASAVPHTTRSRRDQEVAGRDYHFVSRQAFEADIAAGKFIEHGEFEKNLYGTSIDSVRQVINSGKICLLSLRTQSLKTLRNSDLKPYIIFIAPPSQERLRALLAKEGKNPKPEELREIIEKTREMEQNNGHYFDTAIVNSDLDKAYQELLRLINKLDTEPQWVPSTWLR
UniProt Q8WWM7: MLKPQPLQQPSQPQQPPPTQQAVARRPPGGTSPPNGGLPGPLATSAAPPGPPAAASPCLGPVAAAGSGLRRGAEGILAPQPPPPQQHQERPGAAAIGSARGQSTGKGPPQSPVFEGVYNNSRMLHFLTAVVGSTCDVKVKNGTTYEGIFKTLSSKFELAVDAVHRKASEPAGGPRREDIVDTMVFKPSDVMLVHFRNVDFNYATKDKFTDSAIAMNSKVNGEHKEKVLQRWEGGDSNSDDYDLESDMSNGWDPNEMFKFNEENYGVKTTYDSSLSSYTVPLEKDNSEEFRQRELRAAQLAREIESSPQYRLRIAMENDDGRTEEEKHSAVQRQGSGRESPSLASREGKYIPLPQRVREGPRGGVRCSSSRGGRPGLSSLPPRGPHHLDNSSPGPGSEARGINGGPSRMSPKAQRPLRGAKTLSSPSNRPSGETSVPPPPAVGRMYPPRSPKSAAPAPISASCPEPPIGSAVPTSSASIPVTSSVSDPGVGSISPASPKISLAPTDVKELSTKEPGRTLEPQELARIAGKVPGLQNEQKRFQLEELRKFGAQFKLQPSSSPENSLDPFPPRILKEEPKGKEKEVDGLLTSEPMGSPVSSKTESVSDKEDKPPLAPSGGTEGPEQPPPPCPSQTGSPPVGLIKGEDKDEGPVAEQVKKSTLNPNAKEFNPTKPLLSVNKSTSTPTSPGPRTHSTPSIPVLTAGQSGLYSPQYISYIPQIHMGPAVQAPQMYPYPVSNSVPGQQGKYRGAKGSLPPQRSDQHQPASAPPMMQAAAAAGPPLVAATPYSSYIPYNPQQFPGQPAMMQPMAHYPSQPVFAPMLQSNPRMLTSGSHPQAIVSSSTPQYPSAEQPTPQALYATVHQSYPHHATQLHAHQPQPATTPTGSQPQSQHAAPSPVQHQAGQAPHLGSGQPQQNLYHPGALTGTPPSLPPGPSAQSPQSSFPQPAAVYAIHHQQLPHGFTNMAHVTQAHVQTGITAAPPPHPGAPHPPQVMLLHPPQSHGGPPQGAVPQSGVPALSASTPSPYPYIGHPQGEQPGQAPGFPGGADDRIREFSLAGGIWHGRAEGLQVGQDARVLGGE

The list shows a part of the results, in another mix than the full data.

Compound in the assay: COC(=O)C#Cc1ccccc1 [methyl 3-phenylpropiolate]
Nature of the assay: log2 ratio of iodoacetamide-alkyne labeling of the cysteine site, DMSO over compound (competition); higher = stronger covalent engagement of the cysteine by the compound, active = 1 or more. The note with it: 500 µM; treatment time 1 h; system: HEK293T cell lysate. An outline of the steps:
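The log2 competition ratio per cysteine is defined as mean reporter intensity in control channels over mean reporter intensity in compound channels. Lysate from HEK293T cells (2 mg/mL) received electrophile (500 µM) or vehicle for 1 h at ambient temperature, followed by iodoacetamide alkyne for 1 h. Samples were clicked to sCIP-TMT reagents, pooled, trypsin-digested overnight at 37 °C, streptavidin-enriched, acid-eluted and run on Orbitrap Eclipse LC-MS/MS with FAIMS, with quantification in FragPipe. Three replicates with duplicate channels were used, and any cysteine quantified in only one replicate was excluded.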
As to TRUB1 C307 (UniProt Q8WWH5), the “log2 ratio of iodoacetamide-alkyne labeling” value (shortened to “log2 ratio”) is inactive: 0.434.
For the target UniProt Q8NHM5_C533, the “log2 ratio” value was inactive: -0.242.
With UniProt Q8WZA9_C373 the figure was inactive: 0.706; with GEMIN5 C806 (UniProt Q8TEQ6), inactive: 0.414.
Under SLC30A7 C308 (UniProt Q8NEW0) stands inactive: 0.0935; under GTF3C2 C608 (UniProt Q8WUA4), inactive: 0.147.
With UniProt Q8NBU5_C310 the figure was inactive: 0.405.
As to CNNM3 C376 (UniProt Q8NE01), the “log2 ratio” value is inactive: 0.344.
For TNRC6A C800 (UniProt Q8NDV7), the “log2 ratio” value was inactive: 0.917.
As to RDH13 C30 (UniProt Q8NBN7), the “log2 ratio” value was inactive: 0.116.
With UniProt Q8TDN6_C52, the “log2 ratio” value was inactive: 0.652.
With LSM14A C85 (UniProt Q8ND56) the figure was inactive: 0.608.
As for PPP4R1 C566 (UniProt Q8TF05), the “log2 ratio” value was inactive: 0.313.
For the target DDX54 C73 (UniProt Q8TDD1), the “log2 ratio” value was inactive: 0.301.
Under ZNF280C C734 (UniProt Q8ND82) stands inactive: 0.513; under ABCF1 C741 (UniProt Q8NE71), inactive: 0.17; under PPFIBP2 C446 (UniProt Q8ND30), inactive: 0.563.
Under PHIP C612 (UniProt Q8WWQ0) stands inactive: -0.25.
As for DDHD1 C83 (UniProt Q8NEL9), the “log2 ratio” value is inactive: 0.345.
Under PHIP C130 (UniProt Q8WWQ0) stands inactive: 0.375; under LRRC47 C450 (UniProt Q8N1G4), inactive: -0.269; under TXNDC5 C89 (UniProt Q8NBS9), inactive: 0.232.
Under NPLOC4 C188 (UniProt Q8TAT6) stands inactive: 0.0504.
Under UniProt Q8N163_C238 stands inactive: 0.203.
With SCFD1 C485 (UniProt Q8WVM8), the “log2 ratio” value was inactive: 0.0104.
With UniProt Q8NFC6_C686 the figure was inactive: 0.47; with UniProt Q8WYQ9_C159, inactive: 0.271.
Under INTS1 C185 (UniProt Q8N201) stands inactive: -0.114; under PHF10 C383 (UniProt Q8WUB8), inactive: 0.137; under MPP5 C490 (UniProt Q8N3R9), inactive: 0.378.
On to ATXN2L C58 (UniProt Q8WWM7), for which the “log2 ratio” value was inactive: 0.348.
For the target ING5 C19 (UniProt Q8WYH8), the “log2 ratio” value was inactive: 0.29.
Regarding UniProt Q8WZA9_C443, the “log2 ratio” value is inactive: 0.36.
With RNF10 C483 (UniProt Q8N5U6) the figure was inactive: 0.149; with UniProt Q8NB37_C154, inactive: 0.389.
With ASCC3 C366 (UniProt Q8N3C0) the figure was inactive: 0.467.
Under RBM15B C859 (UniProt Q8NDT2) stands inactive: 0.229.
